System: Enterococcus faecium ATCC700221 (VRE)
Assay: MIC/FIC/FICI determination, MHB broth microdilution (CLSI M07-A9)
Assay type: cell-based

**Q.** Which results are given for `CN[C@H](CC(C)C)C(=O)N[C@H]1C(=O)N[C@@H](CC(N)=O)C(=O)N[C@H]2C(=O)N[C@H]3C(=O)N[C@H](C(=O)N[C@H](C(=O)O)c4cc(O)cc(O)c4-c4cc3ccc4O)[C@H](O)c3ccc(c(Cl)c3)Oc3cc2cc(c3O[C@@H]2O[C@H](CO)[C@@H](O)[C@H](O)[C@H]2O[C@H]2C[C@](C)(N)[C@H](O)[C@H](C)O2)Oc2ccc(cc2Cl)[C@H]1O` [vancomycin]?
**A.** MIC (24 h): > 32 µg/mL; MIC (48 h): > 32 µg/mL
